Values of other authors, collected in patent US6884429B2, “Medical devices incorporating deuterated rapamycin for controlled delivery thereof” (Isotechnika International Inc., priority 1997, dated 2005).

Structure (SMILES): CO[C@H]1C[C@@H]2CC[C@@H](C)[C@@](O)(O2)C(=O)C(=O)N2CCCC[C@H]2C(=O)O[C@H]([C@H](C)C[C@@H]2CC[C@@H](O)[C@H](OC)C2)CC(=O)[C@H](C)/C=C(\C)[C@@H](O)[C@@H](OC)C(=O)[C@H](C)C[C@H](C)/C=C/C=C/C=C/1C [Rapamycin]
- solubility in alcohols, halogenated hydrocarbons and dimethyl sulfoxide (alcohols, halogenated hydrocarbons and dimethyl sulfoxide): soluble
- solubility in water, aliphatic hydrocarbons and diethyl ether (water, aliphatic hydrocarbons and diethyl ether): sparingly soluble
